Where a name gives a salt, the structure may show the parent alone. The list shows a part of the results. Hit calls seldom repeat between salt and free forms of one compound.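 Kinases, fused to nanoluciferase, were expressed in K562 cells; luminescence was measured every 4 h from 2 to 18 h as percent of control (DMSO = 100%, positive control = 0%). A time point is decreased if signal falls significantly (2 sigma). Hits were called by the authors by a rule that is not shown; the count of time points alone does not decide it.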
Target: NTRK3 (UniProt Q16288)
Assay: number of time points (of 5) at which kinase-Nluc abundance scored as decreased, DMSO-normalised (count); higher = more persistent destabilization
Conditions: K562; 2-18 h

By UniProt entry, the sequences of proteins in these tests, tags left out. Where a name states a change or a piece, a line headed by the entry shows the natural chain unless it says otherwise.
UniProt Q16288, whole entry, looked up: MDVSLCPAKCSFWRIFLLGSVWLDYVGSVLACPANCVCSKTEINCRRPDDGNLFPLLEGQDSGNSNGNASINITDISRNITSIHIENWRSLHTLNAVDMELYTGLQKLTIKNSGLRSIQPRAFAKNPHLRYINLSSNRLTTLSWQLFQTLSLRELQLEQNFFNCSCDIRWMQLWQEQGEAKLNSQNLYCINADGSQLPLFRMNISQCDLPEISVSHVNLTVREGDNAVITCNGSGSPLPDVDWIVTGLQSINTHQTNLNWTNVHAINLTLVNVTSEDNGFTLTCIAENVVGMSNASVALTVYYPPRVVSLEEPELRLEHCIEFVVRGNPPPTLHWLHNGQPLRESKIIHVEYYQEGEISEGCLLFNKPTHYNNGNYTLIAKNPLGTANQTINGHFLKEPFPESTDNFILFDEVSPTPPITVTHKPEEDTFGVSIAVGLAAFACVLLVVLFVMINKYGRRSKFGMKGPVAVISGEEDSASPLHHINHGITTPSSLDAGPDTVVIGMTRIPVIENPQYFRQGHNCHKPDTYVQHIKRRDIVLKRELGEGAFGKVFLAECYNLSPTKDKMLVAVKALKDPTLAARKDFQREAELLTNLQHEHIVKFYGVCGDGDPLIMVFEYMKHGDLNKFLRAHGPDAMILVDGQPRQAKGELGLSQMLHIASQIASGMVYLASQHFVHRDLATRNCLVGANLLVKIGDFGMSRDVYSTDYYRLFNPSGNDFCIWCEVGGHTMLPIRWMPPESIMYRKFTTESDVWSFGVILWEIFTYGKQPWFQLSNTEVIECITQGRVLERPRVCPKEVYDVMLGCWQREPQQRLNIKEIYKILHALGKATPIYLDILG
UniProt O96013: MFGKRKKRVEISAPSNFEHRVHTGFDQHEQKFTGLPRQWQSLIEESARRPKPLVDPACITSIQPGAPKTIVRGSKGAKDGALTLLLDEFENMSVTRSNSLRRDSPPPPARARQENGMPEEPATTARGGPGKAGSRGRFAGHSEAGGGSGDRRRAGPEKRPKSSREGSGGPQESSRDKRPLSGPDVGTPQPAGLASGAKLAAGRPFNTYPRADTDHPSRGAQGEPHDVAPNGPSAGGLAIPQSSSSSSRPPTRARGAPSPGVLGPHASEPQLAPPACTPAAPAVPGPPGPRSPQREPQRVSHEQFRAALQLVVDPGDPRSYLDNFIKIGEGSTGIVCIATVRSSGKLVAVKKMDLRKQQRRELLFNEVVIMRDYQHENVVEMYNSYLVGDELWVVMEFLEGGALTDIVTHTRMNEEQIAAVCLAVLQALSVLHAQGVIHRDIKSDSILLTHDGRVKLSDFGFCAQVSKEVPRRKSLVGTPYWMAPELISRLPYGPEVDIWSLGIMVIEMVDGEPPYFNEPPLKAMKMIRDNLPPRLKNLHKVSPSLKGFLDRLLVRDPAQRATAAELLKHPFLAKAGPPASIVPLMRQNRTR

| Structure (SMILES) | number of time points |
| --- | --- |
| CC[C@@](C)(Nc1ccnc(-c2c[nH]c3ncccc23)n1)C(=O)NCC(F)(F)F [Decernotinib] (10 µM) | 0 |
| COc1cc2ncnc(-n3nc(-c4ccccn4)nc3N)c2cc1OC (10 µM) | 0 |
| O=C1/C(=C\c2ccc(Cl)cc2)C=C(c2ccccc2)N1c1ccc(O)cc1 (2.5 µM) | 0 |
| Oc1ccc(/C=C/c2cc(O)cc(O)c2)cc1 [Resveratrol] (10 µM) | 0 |

Target: PAK4 (UniProt O96013)
Assay: as above
Conditions: K562; 2-18 h

| Structure (SMILES) | number of time points |
| --- | --- |
| CN1C(=O)[C@@H](NC(=O)c2n[nH]c(Cc3ccccc3)n2)COc2ccccc21 (10 µM) | 0 |
| O=C1NC(=Nc2c(Cl)cccc2Cl)S/C1=C\c1ccc2nccnc2c1 (2.5 µM) | 0 |
| Cc1cccc(-c2[nH]c(C(C)(C)C)nc2-c2ccc3nccnc3c2)n1 (10 µM) | 0 |
| O=C(Nc1cccc(C(F)(F)F)c1)c1cccc2cc(Oc3cc(CO)ncn3)ccc12 (10 µM) | 0 |
| CNc1cc(Nc2cccn(-c3ccccn3)c2=O)nn2c(C(=O)N[C@@H]3C[C@@H]3F)cnc12 (2.5 µM) | 0 |
| Cc1ccn2c(C(=O)C(=O)c3ccccc3)c(-c3ccccc3)nc2c1 (10 µM) | 0 |
| COc1cc(N2CCOCC2)ccc1Nc1ncc(Cl)c(Nc2ccccc2NS(C)(=O)=O)n1 (2.5 µM) | 0 |
| O=C(NC1CCOCC1)c1ccc(-c2cc(-c3c[nH]nc3-c3ccccn3)ccn2)cc1 (10 µM) | 0 |
| O=C1NC(=O)/C(=C/c2ccc3nccc(-c4ccncc4)c3c2)S1 (10 µM) | 0 |
| Cc1ncc(NC(=O)NC2c3ccccc3-c3ccccc32)c(-c2ccccc2)n1 (10 µM) | 0 |
| CC(C)C[C@@H](C(=O)Nc1ccn(C[C@@H](O)CO)n1)N1CC(Oc2ccccc2Cl)=CC1=O [Dorzagliatin] (10 µM) | 0 |
| O=C1O[C@H]([C@@H](O)CO)C(O)=C1OP(=O)(O)O [2-Phospho-L-ascorbic acid (trisodium)] (10 µM) | 0 |
| C[C@@H]1CC(=O)c2c(ccc3c2C(=O)c2cccc(O)c2C3=O)C1 [Ochromycinone] (10 µM) | 0 |
| Cc1c(-c2ccc(C(N)=O)c3[nH]c4cc(C(C)(C)O)ccc4c23)cccc1-n1cnc2ccccc2c1=O (2.5 µM) | 0 |
| CC(C)(C)n1nc(Cc2ccccc2O)c2c(N)ncnc21 (10 µM) | 0 |
| C=CC(=O)N1C(=O)CC(c2ccc(F)cc2)Sc2ccccc21 (stereo not drawn) [GSK-3β inhibitor 3] (10 µM) | 0 |
| CCc1ccc(OCC(=O)Nc2ccc(F)c([N+](=O)[O-])c2)cc1 (10 µM) | 0 |
| CN(C)c1nc2c(Br)c(Br)c(Br)c(Br)c2[nH]1 (10 µM) | 0 |
| Nc1ncnc2c1c(-c1ccc(Oc3ccccc3)cc1)nn2C1CCN(CCOCCOCCOc2ccc3c(c2)CN(C2CCC(=O)NC2=O)C3=O)CC1 (stereo not drawn) (2.5 µM) | 0 |
| Cc1cnc(NC2CCOCC2)nc1-n1cnc(C(=O)N[C@H](CN)c2cc(F)cc(Cl)c2)c1 (10 µM) | 0 |

| Structure (SMILES) | number of time points |
| --- | --- |
| FC(F)(F)c1ccc(/C=C/c2nc(COc3ccc(CCCCn4ccnn4)cc3)co2)cc1 [Mubritinib] (10 µM) | 0 |
| Cc1cc2sc(NC(=O)Cc3ccccc3)nc2cc1Cl (10 µM) | 0 |
| O=C(CNc1cccc(Cl)c1)NC1CCCN(c2ncnc3[nH]ccc23)C1 (stereo not drawn) (10 µM) | 0 |
| Oc1ccc(/C=C/c2cc(O)cc(F)c2)cc1 [Resveratrol analog 1] (10 µM) | 0 |
| CC/C(=N\NC(=O)c1ccnc(NCCCN2CCOCC2)c1)c1ccc(Cl)cc1O (2.5 µM) | 0 |
| O[C@@H]1CO[C@H]2[C@@H]1OC[C@H]2Oc1nc2nc(-c3ccc(-c4ccccc4)cc3)c(Cl)cc2[nH]1 (10 µM) | 0 |
| Nc1c(C(=O)NCc2ccc(C(=O)NCCCC3CCCCC3)cc2)cnn1-c1ccccc1 (2.5 µM) | 0 |
| Cc1ccc(C(=O)Nc2sc(Nc3ccccc3)nc2C(N)=O)cc1 (10 µM) | 0 |
| COc1cc(N(C)CCN(C)C)c(N)cc1Nc1nccc(-c2cn(C)c3ccccc23)n1 [Mutated EGFR-IN-1] (10 µM) | 0 |
| CCN(CC)c1cc2oc(=O)c(-c3nc4ccccc4o3)cc2cc1C (2.5 µM) | 0 |
| Cn1cc(-c2cnc3cnn(S(=O)(=O)c4cnc5ccc(-c6cnn(C)c6)cn45)c3c2)cn1 [Glumetinib] (10 µM) | 0 |
| Cc1ccc(NC(=O)c2ccnc(C(F)(F)F)c2)cc1-c1cc(OCCO)nc(N2CCOCC2)c1 (10 µM) | 0 |
| C=CC(=O)Nc1cccc(-c2cccc3cnc(Nc4ccc(N5CCN(CCO)CC5)c(F)c4F)nc23)c1 [Olafertinib] (2.5 µM) | 0 |
| CC(C)(C[C@H](N)C(=O)O)C(F)F [NV-5138 (hydrochloride)] (10 µM) | 0 |
| Cc1cc(C)nc(NS(=O)(=O)c2ccc(NC(=S)NC(=O)COc3ccc(Br)cc3Cl)cc2)n1 (2.5 µM) | 0 |
| CC[C@@](C)(Nc1ccnc(-c2c[nH]c3ncccc23)n1)C(=O)NCC(F)(F)F [Decernotinib] (10 µM) | 0 |
| COc1cc2ncnc(-n3nc(-c4ccccn4)nc3N)c2cc1OC (10 µM) | 0 |
| O=C1/C(=C\c2ccc(Cl)cc2)C=C(c2ccccc2)N1c1ccc(O)cc1 (2.5 µM) | 0 |
| Oc1ccc(/C=C/c2cc(O)cc(O)c2)cc1 [Resveratrol] (10 µM) | 0 |
